Our source for the binding signal values is paper PMC7819943, “Rice protein-binding microarrays: a tool to detect cis-acting elements near promoter regions in rice”.

The chains behind the UniProt entries cited, without tags or fusion partners.
UniProt Q0JBA9, entry or part of it: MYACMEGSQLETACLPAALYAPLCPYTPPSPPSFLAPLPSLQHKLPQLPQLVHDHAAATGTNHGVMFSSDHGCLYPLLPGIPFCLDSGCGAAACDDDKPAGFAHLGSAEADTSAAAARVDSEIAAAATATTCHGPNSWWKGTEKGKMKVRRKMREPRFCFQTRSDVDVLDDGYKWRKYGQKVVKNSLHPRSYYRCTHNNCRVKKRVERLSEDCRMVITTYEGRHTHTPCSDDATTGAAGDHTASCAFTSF

Some of the results follow.

For this assay, the target named is OsWRKY34 (Oryza sativa, UniProt Q0JBA9 1-250). Briefly: protein-binding microarray (RPBM); PBS, 2% BSA, 51.3 ng/ul salmon testes DNA, 50 uM zinc acetate, 200 nM TF, 25 C, 1 h; high values mean tight binding. As to conditions: protein: recombinant; tags: N-terminal polyhistidine and DsRed monomer fusion (pET32a); label: CyDye5-dUTP incorporated in the synthesized complementary strand; 3' TTTTT single-stranded linker to array surface; dsDNA, one strand shown. A digest of the protocol: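 Transcription factors, each fused N-terminally to a polyhistidine tag and DsRed, were expressed in E. coli BL21-CodonPlus and purified on Ni–NTA. A custom Agilent array was made double-stranded by primer extension with Cy5-dUTP and blocked with 2% BSA. It was incubated with 200 nM protein in PBS, 2% BSA, salmon testes DNA and 50 µM zinc acetate at 25 °C for 1 h, then washed. The binding signal is per-feature fluorescence intensity (arbitrary units) read on an Axon 4000B scanner.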
Consider “ACTGTACTGAGTGCTATAGCACGCATCTATGAACCTTTCCCGGAGTCACCTAGTGCAG”, for which the binding signal is 8490 fluorescence intensity (a.u.).
Consider “GTCCGGATCTCCGCTCTTTGTCGAGTCGACTCCTATTCCTCGGAGTCACCTAGTGCAG”, for which the binding signal is 8470 fluorescence intensity (a.u.).
For “AGGGGAGGCGTCGCTTGGTCGCCATCTTCGTCGTTTGCTTCGGAGTCACCTAGTGCAG”, the binding signal is 9720 fluorescence intensity (a.u.).
Next, “TATAGTATGTTTCAGCTGTCTGCGGTTAGTATTTGATGTTCGGAGTCACCTAGTGCAG”: 9360 fluorescence intensity (a.u.).
Next, “TTCTTTCCCTAATCTCCTGTGCATGTTGTCGTTCCATCTGCGGAGTCACCTAGTGCAG”: 10300 fluorescence intensity (a.u.).
On to “ATCCTCTTTCATCTCATCCGTCCATCCACCATTTCATTTACGGAGTCACCTAGTGCAG”, for which the binding signal was 10200 fluorescence intensity (a.u.).
Turning to “GACGGTGAATAGTGGGATACTTTTATAATGGTGTTATGTTCGGAGTCACCTAGTGCAG”, the binding signal was 10100 fluorescence intensity (a.u.).
The value for “ATTCGTTTGCCCGTCACAGGTATCCCGTCAGAGGTGTGAGCGGAGTCACCTAGTGCAG” was 8650 fluorescence intensity (a.u.); that for “CCTACTCCGCGAATCCGTCCCCGAGAACGCGCGCGCCATGCGGAGTCACCTAGTGCAG” was 8160 fluorescence intensity (a.u.); that for “CATCGCCCACGCCAATGTCGTCGCCGACGTCTCGCTGCCGCGGAGTCACCTAGTGCAG” was 8820 fluorescence intensity (a.u.).
As for “GGCTCCGGAACTTACTCTAGCGCGCGTCGGATGACAAAATCGGAGTCACCTAGTGCAG”, the binding signal is 10100 fluorescence intensity (a.u.).
As to “CACTTCACAATTTGCTAGCCTCGGAAATACATGCCTCATTCGGAGTCACCTAGTGCAG”, the binding signal is 9590 fluorescence intensity (a.u.).
For the sequence “ACTGACATCATCACCAGCACCTCTGCTTCATCGACCCTGACGGAGTCACCTAGTGCAG”, the binding signal is 9940 fluorescence intensity (a.u.).
Turning to “TTTGATTAGATGGTGTGGTGTTTGGCTGATACACTGATACCGGAGTCACCTAGTGCAG”, the binding signal was 9670 fluorescence intensity (a.u.).
Next, “AGGCACACAACTATTTCTTCCAAAAAAATGTCTTTTTTCTCGGAGTCACCTAGTGCAG”: 8540 fluorescence intensity (a.u.); “AACTTGCCTTTCCGTTCCGCCGCTCGGTCTGCTCCAGCCACGGAGTCACCTAGTGCAG”: 8280 fluorescence intensity (a.u.); “TTTTGGGGTTTTTTTAATATCCTTTTAGGATGGATAGGCACGGAGTCACCTAGTGCAG”: 8560 fluorescence intensity (a.u.).
Turning to “TTGTCCTAGGCTGACACGCCAGTCCCACTCTCTCCATTTACGGAGTCACCTAGTGCAG”, the binding signal was 9420 fluorescence intensity (a.u.).
Regarding “ACAAAGGACAGCTATTTAACAACTCCCTCGCTCTCTCAATCGGAGTCACCTAGTGCAG”, the binding signal was 8830 fluorescence intensity (a.u.).
As to “GCGACCGCCTCCGCGACCGACCGCCGCCGCTCGTTGTCAGCGGAGTCACCTAGTGCAG”, the binding signal is 8740 fluorescence intensity (a.u.).
Next, “CGATAATATACCATCGTTGTCTAATTAGTTTTGGTTAGTACGGAGTCACCTAGTGCAG”: 8350 fluorescence intensity (a.u.); “CTTTCTGCACTGCATCAACGCGCTGCAAATTCTTTGGTAACGGAGTCACCTAGTGCAG”: 8220 fluorescence intensity (a.u.).
Next, “TCCTATCCGCGTCCATCTCTCTCCCCGTCTCGATTCCCCACGGAGTCACCTAGTGCAG”: 10300 fluorescence intensity (a.u.); “GAATCATACTCGTGTCATAGTTGAGGGAGTCAAAGTATACCGGAGTCACCTAGTGCAG”: 8330 fluorescence intensity (a.u.).
The value for “CTGGTTGCGTCTCTGAAGTCTGAAGTATACGAGTCATTCACGGAGTCACCTAGTGCAG” was 12000 fluorescence intensity (a.u.).
Turning to “TACTGCTGCCTGCGTCCTCATCAAAGCTCGCCATTATCAGCGGAGTCACCTAGTGCAG”, the binding signal was 8170 fluorescence intensity (a.u.).
As to “TGATACTAGCGCTTCGATTGACACACTTTGACTACTTAGCCGGAGTCACCTAGTGCAG”, the binding signal was 9940 fluorescence intensity (a.u.).
Consider “GGAGGATGCGGGTGGTGGTGGAGGAGGAGGAGGCCGAGGTCGGAGTCACCTAGTGCAG”, for which the binding signal is 12400 fluorescence intensity (a.u.).
For the sequence “CCAAAATATCTCGTCTTTTCATCTGCCGAATCGCCGTTGACGGAGTCACCTAGTGCAG”, the binding signal is 8930 fluorescence intensity (a.u.).
Consider “TTCTTTATTAGACATACTCTGCCACCACTGCACACAATCCCGGAGTCACCTAGTGCAG”, for which the binding signal is 8420 fluorescence intensity (a.u.).
For the sequence “AAACTTGAAGAAATTTGACTTTAGCTAAAGTCAAAACATCCGGAGTCACCTAGTGCAG”, the binding signal was 10600 fluorescence intensity (a.u.).
As to “ATCCTACCCGGTTCGTTTTTTTTCATTTTTTTTTACCACCCGGAGTCACCTAGTGCAG”, the binding signal is 8130 fluorescence intensity (a.u.).
As for “CCGCAGCTACCACCAAAATCGGCACGCATCTTCACCCTCGCGGAGTCACCTAGTGCAG”, the binding signal was 8160 fluorescence intensity (a.u.).
The value for “TTCCTCTCCCTCTTGCATCTATCTCCGCCGCCGAATTTGGCGGAGTCACCTAGTGCAG” was 8260 fluorescence intensity (a.u.); that for “TAACAATTATCTTGCCTTTTGGGAGCTCTTTTTTTTTCTTCGGAGTCACCTAGTGCAG” was 10200 fluorescence intensity (a.u.).
For “TTCCCTCGCTTTGCTCCACTTTCTCTCCACTGGCGCATGCCGGAGTCACCTAGTGCAG”, the binding signal is 9080 fluorescence intensity (a.u.).
Take “TCTCGCAATTTCTGTCAGAACTATGTAATTGGTTTTTTTCCGGAGTCACCTAGTGCAG”: the binding signal was 8490 fluorescence intensity (a.u.).
For “CTCTACTCTACTGTGCCTCACCTCTTGCCACTACTATTTCCGGAGTCACCTAGTGCAG”, the binding signal is 11000 fluorescence intensity (a.u.).
Next, “CTGTGTACCCGCGCACACGCAAACCATTTGCATTTGAGCCCGGAGTCACCTAGTGCAG”: 9470 fluorescence intensity (a.u.); “TGGTTTTCACGGCGAGCCATCTTGTTGTAGCTGTCGGAGTCGGAGTCACCTAGTGCAG”: 11500 fluorescence intensity (a.u.).
Consider “CTTTTATGTGATGTTTCCTTAGCATTGTAAACCAGCTTTCCGGAGTCACCTAGTGCAG”, for which the binding signal is 8800 fluorescence intensity (a.u.).
For the sequence “ACCATGTGAAGCTTAGGCTGTCTATCTAACGTTCTGAATTCGGAGTCACCTAGTGCAG”, the binding signal was 8400 fluorescence intensity (a.u.).
